# According to PubChem BioAssay AID256 (DTP/NCI, 2004):
# The list is a part of this screen's results and no random one: it gathers tests that were run many times, whatever their T/C, doses with no T/C, and many T/C values between a quarter and a half above the control. Further doses and runs are listed elsewhere. T/C gives the treated animals as a percentage of the vehicle group. Some doses have a count of surviving animals in place of a T/C: the source holds a T/C of zero for them, seemingly a mark for toxic or unscored doses. Some doses without a T/C left all or most animals alive at the check, yet need not have been tolerated: the source hardly ever lists a survival T/C far under the control, and the zero likely stands for such cases as well. Counts of survivors are from the toxicity check (mostly the fifth day) where no day follows; animals may have died later. Schedules are NCI's codes, taken here to give the interval after Q, in days (D) or hours (H), and the number of doses after X. Some entries were tested several times; the values are given in rising order. Additions like (4×) count equal records among those shown. For survival time, this PubChem deposit counts one and a half times the control or more as active, and values a quarter to a half above the control carry no call in these data; other NCI protocols may use other cut-offs. Some T/C values carry the count of animals alive at the toxicity check (mostly the fifth day); without a count, all were alive then.
# Tested on: CD2F1 mice, L1210 leukemia ip, survival T/C
# Assay: NCI In Vivo Anticancer Drug Screen. Data for tumor model L1210 Leukemia (intraperitoneal) in CD2F1 (CDF1) mice
# Settings: T/C endpoint: mean survival time, higher T/C = longer survival
# Procedure: The antitumor activity of compounds was measured in mice bearing transplantable tumors. Survival or tumor size were measured and the results are expressed as the measurement made in the treated group (T) divided by the measurement made in the vehicle treated control group (C). The tumor model used in this assay is L1210 Leukemia (intraperitoneal) in CD2F1 (CDF1) mice
# [1] = dose: 200.0 mg/kg/injection, schedule: Q01DX009 (ip), vehicle: citric acid
# [2] = dose: 200.0 mg/kg/injection, schedule: Q01DX001 (ip), vehicle: saline with Tween-80
# [3] = dose: 300.0 mg/kg/injection, schedule: Q01DX001 (ip), vehicle: saline
compound,measurement,setting,value
CN(N=O)C(=O)N[C@@H](C=O)[C@@H](O)[C@H](O)[C@H](O)CO,T/C,"dose: 12.5 mg/kg/injection, schedule: Q01DX009 (ip), vehicle: citric acid, evaluated on day 30","96, 107, 110 % of control (2×)"
same,T/C,"dose: 12.5 mg/kg/injection, schedule: Q01DX009 (ip), vehicle: citric acid, evaluated on day 50",96 % of control
same,T/C,"dose: 12.5 mg/kg/injection, schedule: Q01DX009 (ip), vehicle: other, evaluated on day 30","97, 104 (2×), 105 % of control"
same,T/C,"dose: 12.5 mg/kg/injection, schedule: Q01DX009 (ip), vehicle: other, evaluated on day 37",103 % of control
same,T/C,"dose: 12.5 mg/kg/injection, schedule: Q01DX009 (ip), vehicle: other, evaluated on day 45",103 % of control
same,T/C,"dose: 25.0 mg/kg/injection, schedule: Q01DX009 (ip), vehicle: citric acid, evaluated on day 30","107, 109, 113, 129 % of control"
same,T/C,"dose: 25.0 mg/kg/injection, schedule: Q01DX009 (ip), vehicle: citric acid, evaluated on day 50",110 % of control
same,T/C,"dose: 25.0 mg/kg/injection, schedule: Q01DX009 (ip), vehicle: other, evaluated on day 30","113, 113 [5 of 6 alive], 114, 117 % of control"
same,T/C,"dose: 25.0 mg/kg/injection, schedule: Q01DX009 (ip), vehicle: other, evaluated on day 37",122 % of control
same,T/C,"dose: 25.0 mg/kg/injection, schedule: Q01DX009 (ip), vehicle: other, evaluated on day 45",105 % of control
same,T/C,"dose: 25.0 mg/kg/injection, schedule: Q01DX009 (ip), vehicle: saline",125 % of control
same,T/C,"dose: 50.0 mg/kg/injection, schedule: Q01DX009 (ip), vehicle: citric acid, evaluated on day 30","123, 127, 131, 138 % of control"
same,T/C,"dose: 50.0 mg/kg/injection, schedule: Q01DX009 (ip), vehicle: citric acid, evaluated on day 50",138 % of control
same,T/C,"dose: 50.0 mg/kg/injection, schedule: Q01DX009 (ip), vehicle: other, evaluated on day 30","117, 124, 127, 134 % of control"
same,T/C,"dose: 50.0 mg/kg/injection, schedule: Q01DX009 (ip), vehicle: other, evaluated on day 37",129 % of control
same,T/C,"dose: 50.0 mg/kg/injection, schedule: Q01DX009 (ip), vehicle: other, evaluated on day 45",95 % of control
same,T/C,"dose: 50.0 mg/kg/injection, schedule: Q01DX009 (ip), vehicle: saline",127 % of control
same,T/C,"dose: 66.0 mg/kg/injection, schedule: Q01DX009 (ip), vehicle: other",137 % of control
same,T/C,"dose: 100.0 mg/kg/injection, schedule: Q01DX009 (ip), vehicle: citric acid, evaluated on day 30","112, 147, 150, 168 % of control"
same,T/C,"dose: 100.0 mg/kg/injection, schedule: Q01DX009 (ip), vehicle: citric acid, evaluated on day 50",128 % of control
same,T/C,"dose: 100.0 mg/kg/injection, schedule: Q01DX009 (ip), vehicle: other, evaluated on day 30","89, 93 [5 of 6 alive], 109, 111 % of control [4 of 6 alive]"
same,T/C,"dose: 100.0 mg/kg/injection, schedule: Q01DX009 (ip), vehicle: other, evaluated on day 37",151 % of control
same,T/C,"dose: 100.0 mg/kg/injection, schedule: Q01DX009 (ip), vehicle: other, evaluated on day 45",94 % of control
same,survivor count,"dose: 100.0 mg/kg/injection, schedule: Q01DX009 (ip), vehicle: other",4 of 6
same,T/C,[1],88 % of control
same,survivor count,[1],"2 of 6, 4 of 6, 5 of 6, 6 of 6"
same,survivor count,"dose: 200.0 mg/kg/injection, schedule: Q01DX009 (ip), vehicle: other","0 of 6, 1 of 6, 2 of 6, 3 of 6 (2×)"
same,survivor count,"dose: 400.0 mg/kg/injection, schedule: Q01DX001 (ip), vehicle: other",7 of 10
same,survivor count,"dose: 400.0 mg/kg/injection, schedule: Q04DX003 (ip), vehicle: other",3 of 6
same,survivor count,"dose: 512.0 mg/kg/injection, schedule: Q03HX008 (ip), vehicle: other",3 of 10
same,survivor count,"dose: 512.0 mg/kg/injection, schedule: Q03HX016 (ip), vehicle: other",2 of 10
Nc1nc(-c2cccc([N+](=O)[O-])c2)c(N=Nc2cccc([N+](=O)[O-])c2)s1,survivor count,[2],6 of 6
COc1cc2c(cc1O)C(C)NCC2 (centres undefined),survivor count,[3],1 of 6
O=C(O)C(F)(F)C(F)(F)C(F)(F)C(F)=C(F)F,survivor count,[3],2 of 6
CN(C)C(C)(C)CC(C)(C)C,survivor count,"dose: 200.0 mg/kg/injection, schedule: Q04DX003 (ip), vehicle: saline with Tween-80",0 of 3
same,survivor count,"dose: 400.0 mg/kg/injection, schedule: Q04DX003 (ip), vehicle: saline with Tween-80",0 of 3
Cc1cc(OC(=O)N2CCCCC2)c(C(C)C)cc1[N+](C)(C)C,survivor count,"dose: 0.13 mg/kg/injection, schedule: Q01DX009 (ip), vehicle: saline",2 of 6
same,survivor count,"dose: 0.25 mg/kg/injection, schedule: Q01DX009 (ip), vehicle: saline",3 of 6
same,survivor count,"dose: 0.5 mg/kg/injection, schedule: Q04DX003 (ip), vehicle: saline with Tween-80",3 of 6
same,survivor count,"dose: 1.0 mg/kg/injection, schedule: Q04DX003 (ip), vehicle: saline with Tween-80",0 of 6
same,survivor count,"dose: 2.0 mg/kg/injection, schedule: Q04DX003 (ip), vehicle: saline with Tween-80",0 of 6
COC1OC(CO)C(OC(=O)Nc2ccccc2)C(OC(=O)Nc2ccccc2)C1O (centres undefined),survivor count,[2],6 of 6
CCOC(=O)C(=O)O,survivor count,"dose: 100.0 mg/kg/injection, schedule: Q01DX009 (ip), vehicle: saline",1 of 6
same,survivor count,"dose: 400.0 mg/kg/injection, schedule: Q01DX009 (ip), vehicle: saline",6 of 6
